Experiments:
Experiment in all cases: Zones of inhibition, single-layer coated stainless steel cylinders (Example 4)
Settings in all cases: single-layer coated stainless steel cylinder, 18-24 hours at 37° C.
[1] = test system: Candida albicans; assay type: cell-based
[2] = test system: P. aerug; assay type: cell-based
[3] = test system: S. epidermidis

Which “Zones of inhibition Candida albicans” value [1] does the source give for `CCCCCCCCCCCCCCCC[n+]1ccccc1.[Cl-]` [Cetylpyridinium, 1-Hexadecylpyridinium chloride] here?
Its value is 28 m.m.

What about the “Zones of inhibition P. aerug” value [2] of the same molecule?
Its value is 0 m.m.

What about the “Zones of inhibition S. epidermidis” value [3] of the same molecule?
The value was 33 m.m.
